In US20240269139A1, “COMPOUNDS FOR TARGETED PROTEIN DEGRADATION OF KINASES” (DANA-FARBER CANCER INSTITUTE, INC., priority 2020, published 2024):
For at least one compound, name, drawing or mass did not settle the structure.

Sequences of proteins named here, by UniProt entry; tags and fusion partners are left off.
UniProt O14578, whole entry: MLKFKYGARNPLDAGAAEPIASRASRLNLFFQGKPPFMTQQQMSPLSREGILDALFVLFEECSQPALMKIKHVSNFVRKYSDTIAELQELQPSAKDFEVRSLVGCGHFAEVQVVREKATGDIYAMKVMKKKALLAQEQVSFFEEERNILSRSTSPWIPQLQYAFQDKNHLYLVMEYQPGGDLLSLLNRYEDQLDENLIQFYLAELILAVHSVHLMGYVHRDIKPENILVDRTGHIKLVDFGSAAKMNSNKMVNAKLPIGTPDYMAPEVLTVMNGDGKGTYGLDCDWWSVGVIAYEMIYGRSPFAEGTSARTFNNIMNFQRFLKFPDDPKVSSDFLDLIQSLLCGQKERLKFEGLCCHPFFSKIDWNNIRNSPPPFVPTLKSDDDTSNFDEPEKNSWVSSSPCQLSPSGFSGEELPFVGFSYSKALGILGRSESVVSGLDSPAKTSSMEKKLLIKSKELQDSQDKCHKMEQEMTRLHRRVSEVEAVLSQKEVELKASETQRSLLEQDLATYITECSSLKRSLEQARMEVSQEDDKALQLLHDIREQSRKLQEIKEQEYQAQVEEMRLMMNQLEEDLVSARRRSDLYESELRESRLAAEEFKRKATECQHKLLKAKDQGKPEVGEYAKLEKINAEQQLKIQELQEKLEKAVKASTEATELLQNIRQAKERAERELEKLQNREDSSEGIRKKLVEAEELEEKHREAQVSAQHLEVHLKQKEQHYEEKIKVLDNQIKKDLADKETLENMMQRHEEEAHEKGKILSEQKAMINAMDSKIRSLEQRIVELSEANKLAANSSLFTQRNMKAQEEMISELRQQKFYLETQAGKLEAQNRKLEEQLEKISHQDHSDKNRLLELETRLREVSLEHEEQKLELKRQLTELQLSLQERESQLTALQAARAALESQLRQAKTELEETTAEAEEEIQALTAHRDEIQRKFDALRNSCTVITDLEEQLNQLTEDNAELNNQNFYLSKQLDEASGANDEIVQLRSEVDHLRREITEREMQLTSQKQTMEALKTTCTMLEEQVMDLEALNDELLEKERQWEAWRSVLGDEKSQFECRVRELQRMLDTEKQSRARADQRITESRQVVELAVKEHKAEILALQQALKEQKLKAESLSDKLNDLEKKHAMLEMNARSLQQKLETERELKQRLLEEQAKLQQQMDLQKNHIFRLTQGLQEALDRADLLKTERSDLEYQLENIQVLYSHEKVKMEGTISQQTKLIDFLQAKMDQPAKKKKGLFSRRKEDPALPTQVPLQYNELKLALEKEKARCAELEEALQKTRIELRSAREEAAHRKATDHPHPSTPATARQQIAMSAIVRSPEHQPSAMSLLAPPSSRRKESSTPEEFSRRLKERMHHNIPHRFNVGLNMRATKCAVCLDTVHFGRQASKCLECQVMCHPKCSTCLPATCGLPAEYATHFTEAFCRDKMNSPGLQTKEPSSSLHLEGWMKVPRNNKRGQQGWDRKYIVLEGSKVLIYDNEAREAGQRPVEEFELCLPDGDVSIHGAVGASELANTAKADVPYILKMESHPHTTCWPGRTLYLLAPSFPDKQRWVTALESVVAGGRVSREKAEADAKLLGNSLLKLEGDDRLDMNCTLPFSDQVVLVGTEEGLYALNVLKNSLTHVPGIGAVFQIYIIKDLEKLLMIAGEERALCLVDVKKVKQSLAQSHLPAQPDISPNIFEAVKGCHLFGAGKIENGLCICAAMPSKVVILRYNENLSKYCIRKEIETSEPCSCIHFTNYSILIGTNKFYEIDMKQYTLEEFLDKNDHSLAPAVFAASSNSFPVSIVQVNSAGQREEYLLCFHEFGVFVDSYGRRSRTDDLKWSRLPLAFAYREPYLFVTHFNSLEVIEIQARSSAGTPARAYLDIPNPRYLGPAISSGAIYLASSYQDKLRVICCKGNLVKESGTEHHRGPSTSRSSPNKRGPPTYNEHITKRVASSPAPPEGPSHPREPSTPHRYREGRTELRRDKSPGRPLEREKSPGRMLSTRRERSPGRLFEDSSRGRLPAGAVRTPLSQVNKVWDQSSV

Target: protein kinases (human kinome) (Homo sapiens, UniProt O14578)
Assay type: cell-based
Settings: Experiment wp152; direction of change down
From the text: Although development of targeted protein degraders requires a POI binder, among already-liganded proteins such as kinases, it was hypothesized that different targets would have a different propensity for current approaches to degrader-mediated destruction, which was termed ‘degradability’. […] It was rationalized that the probability of identifying the same kinase as a false positive in multiple treatments is low, therefore this analysis served to also assess the robustness of our data and subsequent interpretations. […] Overall, 62 protein kinases were degraded in more than 10 independent treatments, and remarkably, 9 of these (CDK4, AURKA, FER, WEE1, BLK. LIMK2, CDK6, GAK, LIMK1) were each degraded in at least 40 of the 154 independent treatments, emphasizing their predisposition to induced degradation (FIG. 1G; Appendix I).
Next, the frequency of degradation assessment was corrected for over-representation of molecules in the full dataset by omitting replicate profiling of compounds under different experimental conditions, to remove any bias. […] Unsurprisingly, the top degradable kinases mirror those from the previous analysis (CDK4, AURKA, FER, WEE1, BLK), confirming that in sufficiently large datasets, even with over-representation of certain molecules, frequency of degradation is a good measure of general tractability.

## Cc1ccc(NC(=O)c2cccc(C(F)(F)F)c2)cc1N1Cc2cnc(Nc3ccc(N4CCN(CCCCCC(=O)N[C@H](C(=O)N5C[C@H](O)C[C@H]5C(=O)N[C@@H](C)c5ccc(-c6scnc6C)cc5)C(C)(C)C)CC4)nc3)nc2N(C)C1=O [DB1114, (2S,4R)-1-((S)-3,3-dimethyl-2-(6-(4-(5-((8-methyl-6-(2-methyl-5-(3-(trifluoromethyl)benzamido)phenyl)-7-oxo-5,6,7,8-tetrahydropyrimido[4,5-d]pyrimidin-2-yl)amino)pyridin-2-yl)piperazin-1-yl)hexanamido)butanoyl)-4-hydroxy-N—((S)-1-(4-(4-methylthiazol-5-yl)phenyl)ethyl)pyrrolidine-2-carboxamide]
  logFC CIT (O14578): −0.39
